Measurements reported in PubChem BioAssay AID1259308 (NCATS, 2017)
Here is a random part of about 59,000 deposited reagents. About 1,510 of them (2.6%) were called active. 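Calls use total luciferase alone and ignore viability, so some active siRNAs may act by altering cell number.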 Reagents against one gene are numbered here. Not all columns of the deposit are shown. Reagent sequences are not shown.

Screen: 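Knock-downs that increase output of a recombinant reporter protein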 (primary screen)
System: human HEK293 embryonic kidney cells stably expressing firefly luciferase (HEK-CMV-Luc2-Hygro)
Reagents: single siRNA against human genes, 0.8 pmol siRNA per well
Timing: 72 h
Measurement: 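Reporter luminescence and viable-cell signal on separate replicate plates, given as percent of non-targeting control and median/MAD z-scores, plus per-cell luciferase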
Reading the numbers: total luciferase, z-score: higher = more reporter protein produced
Rule for the call: 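Active when the median/MAD z-score for overall luciferase is greater than 3; a gene was taken forward for validation with new siRNAs if at least two of its three siRNAs passed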
Meaning of the calls: active = raised luciferase; inactive = no rise

{"gene":"PMF1","reagent":1,"total luciferase, z-score":0.483,"outcome":"inactive"}
{"gene":"PMF1","reagent":2,"total luciferase, z-score":1.66,"outcome":"inactive"}
{"gene":"PMF1","reagent":3,"total luciferase, z-score":-2.54,"outcome":"inactive"}
{"gene":"GABRG2","reagent":1,"total luciferase, z-score":-0.209,"outcome":"inactive"}
{"gene":"GABRG2","reagent":2,"total luciferase, z-score":-0.692,"outcome":"inactive"}
{"gene":"GABRG2","reagent":3,"total luciferase, z-score":0.805,"outcome":"inactive"}
{"gene":"SH3BP4","reagent":1,"total luciferase, z-score":0.81,"outcome":"inactive"}
{"gene":"SH3BP4","reagent":2,"total luciferase, z-score":-0.0509,"outcome":"inactive"}
{"gene":"SH3BP4","reagent":3,"total luciferase, z-score":1.07,"outcome":"inactive"}
{"gene":"ABAT","reagent":1,"total luciferase, z-score":0.325,"outcome":"inactive"}
{"gene":"ABAT","reagent":2,"total luciferase, z-score":-1.13,"outcome":"inactive"}
{"gene":"ABAT","reagent":3,"total luciferase, z-score":-0.368,"outcome":"inactive"}
{"gene":"FGF14-AS2","reagent":1,"total luciferase, z-score":0.0368,"outcome":"inactive"}
{"gene":"FGF14-AS2","reagent":2,"total luciferase, z-score":0.108,"outcome":"inactive"}
{"gene":"FGF14-AS2","reagent":3,"total luciferase, z-score":0.449,"outcome":"inactive"}
{"gene":"ACD","reagent":1,"total luciferase, z-score":-1.57,"outcome":"inactive"}
{"gene":"ACD","reagent":2,"total luciferase, z-score":1.97,"outcome":"inactive"}
{"gene":"ACD","reagent":3,"total luciferase, z-score":-1.84,"outcome":"inactive"}
{"gene":"SDHAF3","reagent":1,"total luciferase, z-score":3.47,"outcome":"active"}
{"gene":"SDHAF3","reagent":2,"total luciferase, z-score":0.246,"outcome":"inactive"}
{"gene":"SDHAF3","reagent":3,"total luciferase, z-score":1.05,"outcome":"inactive"}
{"gene":"ADAM11","reagent":1,"total luciferase, z-score":0.709,"outcome":"inactive"}
{"gene":"ADAM11","reagent":2,"total luciferase, z-score":0.0499,"outcome":"inactive"}
{"gene":"ADAM11","reagent":3,"total luciferase, z-score":1.83,"outcome":"inactive"}
{"gene":"SLCO1B3","reagent":1,"total luciferase, z-score":-2.06,"outcome":"inactive"}
{"gene":"SLCO1B3","reagent":2,"total luciferase, z-score":3.36,"outcome":"active"}
{"gene":"SLCO1B3","reagent":3,"total luciferase, z-score":0.555,"outcome":"inactive"}
{"gene":"CELSR1","reagent":1,"total luciferase, z-score":1.52,"outcome":"inactive"}
{"gene":"CELSR1","reagent":2,"total luciferase, z-score":-0.484,"outcome":"inactive"}
{"gene":"CELSR1","reagent":3,"total luciferase, z-score":-1.07,"outcome":"inactive"}
{"gene":"ITIH2","reagent":1,"total luciferase, z-score":-0.817,"outcome":"inactive"}
{"gene":"ITIH2","reagent":2,"total luciferase, z-score":0.776,"outcome":"inactive"}
{"gene":"ITIH2","reagent":3,"total luciferase, z-score":-1.38,"outcome":"inactive"}

Reagents above with an active call (2):
{"gene":"SDHAF3","reagent":1,"total luciferase, z-score":3.47,"outcome":"active"}
{"gene":"SLCO1B3","reagent":2,"total luciferase, z-score":3.36,"outcome":"active"}
